In this assay the test system is LX-2 cells (human HSCs). Kind of assay: CCK8 experiment, proliferation of LX-2 cells. In kind it is cell-based. As to conditions: CCK-8. The method, then:
The liposome suspension prepared in Example 1 was centrifuged in an ultracentrifuge (10,000 rpm, 30 min) to fully precipitate the liposome; followed which a supernatant was discarded, and the remaining liposome was resuspended in a cell medium (a high-glucose Deme medium) for subsequent experiments.
• 1. Experimental purpose: the drug and its various components were added into the cell medium, respectively to explore whether there was an inhibitory effect on the proliferation of HSCs. The continuous activation of HSC was a key link in the development of hepatic fibrosis, and inhibiting the proliferation or activation of HSC was an important means to treat hepatic fibrosis. • 2. Experimental method: a “CCK8 experiment” was conducted to verify the effectiveness of the liposome drug disclosed in the present disclosure on liver fibroblasts, specifically as follows: • LX-2 cells (human HSCs) were inoculated in a 96-well plate at a density of 8,000 cells/well. After 24 h of culture, different components of the drug were respectively incubated with the cells for 48 h, and then a CCK-8 reagent was used for cytotoxicity detection. […]

The record followed here is patent US20250161244A1, “PREPARATION METHOD AND USE OF LIPOSOME ENCAPSULATING POLYPEPTIDE, SUBEROYLANILIDE HYDROXAMIC ACID (SAHA), AND VITAMIN A” (UNION HOSPITAL, TONGJI MEDICAL COLLEGE, HUAZHONG UNI. OF …, priority 2023, published 2025).

For the compound `O=C(CCCCCCC(=O)Nc1ccccc1)NO` [SAHA, suberoylanilide hydroxamic acid], under “48 h, concentration not specified (2.5/5 μM tested)”, the “cell proliferation activity relative to that of the original” value is “about 60%”. The “inhibitory effect on LX-2 cells proliferation” value (48 h incubation, tested at 2.5 μM and 5 μM) is “significant inhibitory effect”.
